SMILES strings stand for the structures. The list shows a part of the results. Single values are uncertain here, since repeats match poorly.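 U2OS cells carrying ACE2 were mixed with U2OS cells carrying full-length spike, and fusion was scored by imaging as the share of nuclei showing both cell types' fluorescent markers. A compound counts as an inhibitory hit when it is non-toxic and its fusion z-score falls below -3, meaning more than three standard deviations below the plate's DMSO wells.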

This test concerns U2OS ACE2 x SARS-CoV-2 spike co-culture. Put plainly: cell-cell fusion (fraction fused) z-score vs plate DMSO control; higher = more fusion. Particulars: 30 µM; 5 h; toxicity class: non-toxic, passed QC.
On to `CC(C(=O)O)c1ccc2c(c1)[nH]c1ccc(Cl)cc12` (stereo not drawn), for which the “cell-cell fusion (z-score)” value is inactive: -0.186. Consider `CC1/C(=N/O)C[C@@H]2C[C@H]1C2(C)C` (stereo partly drawn), for which the “cell-cell fusion (z-score)” value is inactive: 2.

Consider `CC(=O)Oc1cccc(O)c1`, for which the “cell-cell fusion (z-score)” value was inactive: 3.39. Turning to `N[C@H](CO)Cc1ccccc1`, the “cell-cell fusion (z-score)” value is inactive: 3.48.

As for `Cc1cc(O)c2c(c1)C(=O)c1cc(O)cc(O)c1C2=O`, the “cell-cell fusion (z-score)” value is inactive: 2.68. Consider `CC(=O)O.N=C(N)N/N=C/c1c(Cl)cccc1Cl` [Guanabenz Acetate], for which the “cell-cell fusion (z-score)” value was inactive: 0.092. As for `CN(C)C(=O)N[C@H]1CC[C@H](CCN2CCN(c3cccc(Cl)c3Cl)CC2)CC1` [Cariprazine], the “cell-cell fusion (z-score)” value is inactive: 1.05. Consider `COc1ccc(CCC(=O)c2c(O)cc(O[C@@H]3O[C@H](CO)C(O)[C@H](O)C3O[C@@H]3O[C@@H](C)[C@H](O)[C@@H](O)[C@H]3O)cc2O)cc1O` (stereo partly drawn), for which the “cell-cell fusion (z-score)” value was inactive: 2.54. Regarding `O=C(Nc1ncc([N+](=O)[O-])s1)c1ccc([N+](=O)[O-])c(Cl)c1` [NFκB Activation Inhibitor III], the “cell-cell fusion (z-score)” value was inactive: 2.45. In the case of `COc1ccccc1N1CCN(CCCCNC(=O)c2ccc3ccccc3c2)CC1`, the “cell-cell fusion (z-score)” value was inactive: 1.65. `CC(N)Cc1c[nH]c2ccc(O)cc12.O=C(O)/C=C\C(=O)O` (stereo not drawn) [alpha-Methyl-5-hydroxytryptamine maleate]: the “cell-cell fusion (z-score)” value was inactive: 2.6. For the compound `O=C1NC(=O)c2c1c(-c1ccccc1)cc1[nH]c3ccc(O)cc3c21`, the “cell-cell fusion (z-score)” value was active: -5.17. Regarding `Cc1cc(=O)oc2c(O)c(O)ccc12`, the “cell-cell fusion (z-score)” value is inactive: 1.29. In the case of `NC[C@H](O)c1ccc(O)c(O)c1.O=C(O)C(O)C(O)C(=O)O` [L(-)-Norepinephrine bitartrate], the “cell-cell fusion (z-score)” value was inactive: -0.315. As to `COc1ccc(Cc2cnc(N)nc2N)cc1OC`, the “cell-cell fusion (z-score)” value was inactive: 1.67. The value for `COCCCOc1ccnc(CS(=O)c2nc3ccccc3[n-]2)c1C.[Na+]` (stereo not drawn) was inactive: 4.44; that for `CC(C)(C)NCC(O)c1ccc(O)c(CO)c1.CC(C)(C)NCC(O)c1ccc(O)c(CO)c1.O=S(=O)(O)O` (stereo not drawn) [Albuterol hemisulfate] was active: -3.3. For `N#C/C(=C\c1cn(-c2ccccc2)c2ccccc12)C(=O)O` the value was inactive: 2.82; for `COc1ncnc(NS(=O)(=O)c2ccc(N)cc2)c1OC`, inactive: 1.2. For the compound `CC(C)(C)N.CCC[C@H](N[C@@H](C)C(=O)N1[C@H](C(=O)O)C[C@@H]2CCCC[C@@H]21)C(=O)OCC` [Perindopril erbumine], the “cell-cell fusion (z-score)” value was inactive: 0.861. As to `CC(C)=CCC/C(C)=C/CC/C(C)=C/CO`, the “cell-cell fusion (z-score)” value was inactive: 1.78. `Br.Oc1ccc(C2CNCCc3c2cc(O)c(O)c3Cl)cc1` (stereo not drawn) [Fenoldopam bromide]: the “cell-cell fusion (z-score)” value is active: -4.41. On to `COc1ccc(Br)cc1S(=O)(=O)NC(=O)/C=C/c1ccccc1Cc1ccc2ccccc2c1`, for which the “cell-cell fusion (z-score)” value is inactive: 0.129. With `CC(=O)[C@H]1CCC2C3C[C@H](C)C4=CC(=O)CC[C@]4(C)C3[C@@H](O)C[C@@]21C` (stereo partly drawn), the “cell-cell fusion (z-score)” value is inactive: -0.719. For `Cn1c(Cn2ccc(C(F)(F)F)c(Oc3cc(Cl)cc(C#N)c3)c2=O)n[nH]c1=O` [Doravirine] the value was inactive: 0.883; for `O=C(O)C1CC(C2CCCCN2)CN2CCCCC12` (stereo not drawn), inactive: 0.961; for `C=C1c2c(Cl)ccc(O)c2C(=O)C2=C(O)[C@]3(O)C(=O)C(C(N)=O)=C(O)[C@@H](N(C)C)[C@@H]3[C@@H](O)[C@H]12.O=C(O)c1cc(S(=O)(=O)O)ccc1O`, inactive: 2.63.

In the case of `C[C@@H]1CC[C@]2(C(=O)O)CC[C@]3(C)C(=CCC4[C@@]5(C)CC[C@H](O)C(C)(C)C5CC[C@]43C)C2[C@H]1C` (stereo partly drawn), the “cell-cell fusion (z-score)” value is inactive: 1.73. With `CS(=O)(=O)O.O=C(Nc1cccc(Cl)c1)Nc1ncc(CCNc2ncnc3ccsc23)s1`, the “cell-cell fusion (z-score)” value is active: -4.93. As for `Cl.Clc1ccccc1CN1CCc2sccc2C1` [Ticlopidine hydrochloride], the “cell-cell fusion (z-score)” value is inactive: 3.3.

With `C=CCn1c(=O)c2c(nc(-c3ccc(S(=O)(=O)O)cc3)n2C)n(C)c1=O` [1-Allyl-3,7-dimethyl-8-p-sulfophenylxanthine], the “cell-cell fusion (z-score)” value is inactive: 3.42. Take `CC(O)(P(=O)(O)O)P(=O)(O)O` [Etidronate]: the “cell-cell fusion (z-score)” value is inactive: 2.55. Consider `Cl.Fc1ccc(CN(C2=NCCN2)c2c(Cl)cccc2Cl)cc1` [IMID-4F hydrochloride], for which the “cell-cell fusion (z-score)” value was inactive: 3.87. As to `Cc1nc(-c2ccc(OCC(C)C)c(C#N)c2)sc1C(=O)O` [Febuxostat (Uloric)], the “cell-cell fusion (z-score)” value was inactive: 1.7. For `COCC1=C(C(=O)OC(C)OC(=O)OC(C)C)N2C(=O)[C@@H](NC(=O)/C(=N\OC)c3csc(N)n3)[C@H]2SC1` (stereo partly drawn) [Cefpodoxime proxetil] the value was inactive: 1.19.

As to `CCc1cc(Nc2nccc(-c3c(-c4ccc(OC)c(C(=O)Nc5c(F)cccc5F)c4)nc4ccccn34)n2)c(OC)cc1N1CCC(N2CCN(S(C)(=O)=O)CC2)CC1`, the “cell-cell fusion (z-score)” value is inactive: 2.11. As to `C[C@]12C[C@H](O)[C@H]3[C@@H](CCC4=CC(=O)CC[C@@]43C)[C@@H]1CC[C@@H]2C(=O)CO` [Corticosterone], the “cell-cell fusion (z-score)” value is inactive: 2.62. In the case of `O=c1[nH]cnc2c1ncn2C1O[C@H](CO)[C@@H](O)[C@H]1O` (stereo partly drawn), the “cell-cell fusion (z-score)” value is inactive: 3.33.

Turning to `C[C@H]1C[C@@H]2[C@H]([C@@H](O)C[C@@]3(C)[C@H]2CC[C@]3(O)C(=O)CO)[C@@]2(C)C=CC(=O)C=C12` [Methylprednisolone], the “cell-cell fusion (z-score)” value was inactive: 2.19. As for `CC(=O)N1CCN(c2ccc(OC[C@H]3CO[C@](Cn4ccnc4)(c4ccc(Cl)cc4Cl)O3)cc2)CC1` [Ketoconazole], the “cell-cell fusion (z-score)” value was inactive: 2.12. For `COc1ccc(-c2oc3ccccc3c(=O)c2OC)cc1` the value was inactive: 1.55. Regarding `COc1ccc([C@@H]2Sc3ccccc3N(CCN(C)C)C(=O)[C@@H]2OC(C)=O)cc1.Cl` [Diltiazem hydrochloride], the “cell-cell fusion (z-score)” value is inactive: 1.99. With `CN1CCC(=C2c3ccccc3Sc3ccccc32)CC1.O=C(O)/C=C\C(=O)O`, the “cell-cell fusion (z-score)” value was inactive: 1.11.

Values taken from the supplement of paper PMC8104966.
